Reference: PMC11005415
These are yes or no findings as the source states them, for the method shown. Binding seen in cells or lysates may run through a third protein. These calls come from enrichment with a bait or labelling near it, and not all partners need be listed. Sequences can lack the tags named with a protein.

Biological target: T1, Cactin-V5 (Drosophila melanogaster) (UniProt Q9VR99)
T1 sequence: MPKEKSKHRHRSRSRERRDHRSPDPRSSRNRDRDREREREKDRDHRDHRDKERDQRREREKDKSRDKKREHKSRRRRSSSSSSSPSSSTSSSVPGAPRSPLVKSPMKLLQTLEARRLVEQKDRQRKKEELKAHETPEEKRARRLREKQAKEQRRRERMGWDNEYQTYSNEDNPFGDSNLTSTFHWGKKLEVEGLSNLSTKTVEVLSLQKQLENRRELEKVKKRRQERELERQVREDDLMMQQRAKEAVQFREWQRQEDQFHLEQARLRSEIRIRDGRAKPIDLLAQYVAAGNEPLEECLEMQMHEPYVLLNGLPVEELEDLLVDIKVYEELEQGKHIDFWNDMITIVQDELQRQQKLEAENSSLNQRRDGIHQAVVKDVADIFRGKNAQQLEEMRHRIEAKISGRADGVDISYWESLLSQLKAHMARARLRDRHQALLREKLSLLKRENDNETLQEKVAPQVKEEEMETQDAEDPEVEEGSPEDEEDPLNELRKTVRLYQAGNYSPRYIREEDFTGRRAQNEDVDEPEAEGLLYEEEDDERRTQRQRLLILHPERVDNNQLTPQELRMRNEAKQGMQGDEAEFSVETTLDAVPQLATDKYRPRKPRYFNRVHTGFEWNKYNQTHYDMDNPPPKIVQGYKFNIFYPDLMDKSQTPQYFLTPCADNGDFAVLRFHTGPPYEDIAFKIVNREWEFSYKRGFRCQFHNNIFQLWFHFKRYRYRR
Experiment: affinity purification with mass spectrometry; anti-V5 immunoprecipitation of the Cactin-protein complex from S2 cells overexpressing Cactin-V5, with or without DCV infection; enriched 50-kDa band identified by mass spectrometry

B1: phosphoglycerate kinase (PGK), endogenous (enzyme, UniProt Q01604 1-415)
chain: MAFNKLSIENLDLAGKRVLMRVDFNVPIKEGKITSNQRIVAALDSIKLALSKKAKSVVLMSHLGRPDGNKNIKYTLAPVAAELKTLLGQDVIFLSDCVGSEVEAACKDPAPGSVILLENVRFYVEEEGKGLDASGGKVKADPAKVKEFRASLAKLGDVYVNDAFGTAHRAHSSMMGDGFEQRAAGLLLNKELKYFSQALDKPPNPFLAILGGAKVADKIQLIENLLDKVNEMIIGGGMAFTFLKVLNNMKIGGSLFDEEGSKIVEKLVEKAKKNNVQLHLPVDFVCGDKFAENAAVSEATVEAGIPDGHMGLDVGPKTRELFAAPIARAKLIVWNGPPGVFEFPNFANGTKSIMDGVVAATKNGTVSIIGGGDTASCCAKWNTEALVSHVSTGGGASLELLEGKTLPGVAALTSA
binding: binds
